{
  "source": "paper PMC10269722",
  "about": "“LexR Positively Regulates the LexABC Efflux Pump Involved in Self-Resistance to the Antimicrobial Di-N-Oxide Phenazine in Lysobacter antibioticus”",
  "target": "T1, LexR (Lysobacter antibioticus OH13) (UniProt A0A0S2F3V0)",
  "T1 sequence (looked up, limits assumed)": "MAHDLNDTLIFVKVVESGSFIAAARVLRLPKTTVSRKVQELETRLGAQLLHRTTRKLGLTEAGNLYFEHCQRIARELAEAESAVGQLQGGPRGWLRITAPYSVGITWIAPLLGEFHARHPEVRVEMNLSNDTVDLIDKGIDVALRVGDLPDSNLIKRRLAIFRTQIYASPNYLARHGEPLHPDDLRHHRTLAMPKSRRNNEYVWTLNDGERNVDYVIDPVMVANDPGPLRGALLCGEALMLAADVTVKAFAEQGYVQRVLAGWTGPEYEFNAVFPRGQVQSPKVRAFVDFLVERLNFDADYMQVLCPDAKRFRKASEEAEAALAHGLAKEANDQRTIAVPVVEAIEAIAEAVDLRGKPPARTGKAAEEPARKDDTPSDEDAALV",
  "test": "EMSA",
  "settings": "EMSA (LightShift kit): 1x binding buffer, 50 ng/uL poly(dI-dC), 2.5% glycerol, 0.05% NP-40, 5 fmol labeled probe in 20 uL, 30 min; recombinant protein; protein details: His6 (pET-28a, BamHI/EcoRI); label: 5' biotin",
  "note": "For at least one entry, the source does not settle the construct or the ends of the probe. No signal at the amounts used counts as a negative. At least one verdict was read from the data and is not stated in words by the source. Tags and fusion partners may be left off the protein sequences shown.",
  "data": [
    {"sequence": "GGCTCCGCGCCTGCCAGCTTCTTTTTTCGTTGTCTGGGGGCTAGGGCGAGACACCCGC (double strand) [probe 3 (58 bp)]", "values": [
      {"measurement": "binding result", "value": "no binding"}
    ]}
  ]
}
